Laboratory results from patent publication US10653658B2, “Biofilm inhibiting compositions enhancing weight gain in livestock” (Akeso Biomedical, Inc., priority 2015, dated 2020).

Conditions: 0.2 g/L in drinking water; weaner pigs

Question: What does the source list for `CC(O)C(=O)O.CC(O)C(=O)O.CC(O)C(=O)O.[Fe]` (centres unmarked) [Fe-Lac, ferric lactate]?
Answer: Daily averaged water intake, days 0 to 4 post weaning: 641 g/day/pig; Daily averaged water intake, days 0 to 7 post weaning: 746 g/day/pig; Daily averaged water intake, days 0 to 14 post weaning: 1040 g/day/pig; Daily averaged water intake, days 4 to 7 post weaning: 885 g/day/pig; Daily averaged water intake, days 7 to 14 post weaning: 1335 g/day/pig
